PMC5357305
These are yes or no findings as the source states them, for the method shown. In cells and extracts the contact can be indirect. Some binding calls cover weakened binding; strength is not graded here. Tags and fused reporters may be left off the sequences shown.

The chains behind the UniProt entries cited, without tags or fusion partners.
UniProt Q9GZV5: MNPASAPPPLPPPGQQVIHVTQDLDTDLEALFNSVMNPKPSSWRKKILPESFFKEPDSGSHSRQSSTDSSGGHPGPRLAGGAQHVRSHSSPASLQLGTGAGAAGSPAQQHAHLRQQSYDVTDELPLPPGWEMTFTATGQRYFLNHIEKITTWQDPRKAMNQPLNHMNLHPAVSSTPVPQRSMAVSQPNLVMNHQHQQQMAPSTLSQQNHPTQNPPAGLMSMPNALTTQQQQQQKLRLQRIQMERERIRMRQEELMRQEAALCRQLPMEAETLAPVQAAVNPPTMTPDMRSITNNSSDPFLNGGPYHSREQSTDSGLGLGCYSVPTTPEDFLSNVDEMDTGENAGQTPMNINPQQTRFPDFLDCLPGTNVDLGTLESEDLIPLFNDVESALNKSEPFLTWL

B1: Myc-CDK5RAP2-C1 (residues 1-580) (domain or fragment, UniProt Q96SN8-1 1-580)
chain: MMDLVLEEDVTVPGTLSGCSGLVPSVPDDLDGINPNAGLGNGLLPNVSEETVSPTRARNMKDFENQITELKKENFNLKLRIYFLEERMQQEFHGPTEHIYKTNIELKVEVESLKRELQEREQLLIKASKAVESLAEAGGSEIQRVKEDARKKVQQVEDLLTKRILLLEKDVTAAQAELEKAFAGTETEKALRLRLESKLSEMKKMHEGDLAMALVLDEKDRLIEELKLSLKSKEALIQCLKEEKSQMACPDENVSSGELRGLCAAPREEKERETEAAQMEHQKERNSFEERIQALEEDLREKEREIATEKKNSLKRDKAIQGLTMALKSKEKKVEELNSEIEKLSAAFAKAREALQKAQTQEFQGSEDYETALSGKEALSAALRSQNLTKSTENHRLRRSIKKITQELSDLQQERERLEKDLEEAHREKSKGDCTIRDLRNEVEKLRNEVNEREKAMENRYKSLLSESNKKLHNQEQVIKHLTESTNQKDVLLQKFNEKDLEVIQQNCYLMAAEDLELRSEGLITEKCSSQQPPGSKTIFSKEKKQSSDYEELIQVLKKEQDIYTHLVKSLQESDSINNL
B2: Myc-CDK5RAP2-C2 (residues 1-1271) (domain or fragment, UniProt Q96SN8-1 1-1271)
chain: MMDLVLEEDVTVPGTLSGCSGLVPSVPDDLDGINPNAGLGNGLLPNVSEETVSPTRARNMKDFENQITELKKENFNLKLRIYFLEERMQQEFHGPTEHIYKTNIELKVEVESLKRELQEREQLLIKASKAVESLAEAGGSEIQRVKEDARKKVQQVEDLLTKRILLLEKDVTAAQAELEKAFAGTETEKALRLRLESKLSEMKKMHEGDLAMALVLDEKDRLIEELKLSLKSKEALIQCLKEEKSQMACPDENVSSGELRGLCAAPREEKERETEAAQMEHQKERNSFEERIQALEEDLREKEREIATEKKNSLKRDKAIQGLTMALKSKEKKVEELNSEIEKLSAAFAKAREALQKAQTQEFQGSEDYETALSGKEALSAALRSQNLTKSTENHRLRRSIKKITQELSDLQQERERLEKDLEEAHREKSKGDCTIRDLRNEVEKLRNEVNEREKAMENRYKSLLSESNKKLHNQEQVIKHLTESTNQKDVLLQKFNEKDLEVIQQNCYLMAAEDLELRSEGLITEKCSSQQPPGSKTIFSKEKKQSSDYEELIQVLKKEQDIYTHLVKSLQESDSINNLQAELNKIFALRKQLEQDVLSYQNLRKTLEEQISEIRRREEESFSLYSDQTSYLSICLEENNRFQVEHFSQEELKKKVSDLIQLVKELYTDNQHLKKTIFDLSCMGFQGNGFPDRLASTEQTELLASKEDEDTIKIGEDDEINFLSDQHLQQSNEIMKDLSKGGCKNGYLRHTESKISDCDGAHAPGCLEEGAFINLLAPLFNEKATLLLESRPDLLKVVRELLLGQLFLTEQEVSGEHLDGKTEKTPKQKGELVHFVQTNSFSKPHDELKLSCEAQLVKAGEVPKVGLKDASVQTVATEGDLLRFKHEATREAWEEKPINTALSAEHRPENLHGVPGWQAALLSLPGITNREAKKSRLPILIKPSRSLGNMYRLPATQEVVTQLQSQILELQGELKEFKTCNKQLHQKLILAEAVMEGRPTPDKTLLNAQPPVGAAYQDSPGEQKGIKTTSSVWRDKEMDSDQQRSYEIDSEICPPDDLASLPSCKENPEDVLSPTSVATYLSSKSQPSAKVSVMGTDQSESINTSNETEYLKQKIHDLETELEGYQNFIFQLQKHSQCSEAIITVLCGTEGAQDGLSKPKNGSDGEEMTFSSLHQVRYVKHVKILGPLAPEMIDSRVLENLKQQLEEQEYKLQKEQNLNMQLFSEIHNLQNKFRDLSPPRYDSLVQSQARELSLQRQQIKDGHGICVISR

target: Flag-TAZ (UniProt Q9GZV5); assay: co-IP; HEK293T cells co-transfected with Flag-TAZ and Myc-tagged CDK5RAP2 proteins; lysis in 10 mM Tris/HCl pH 7.4, 50 mM NaCl, 0.5% NP40; Flag-trap beads 2 h at 4 °C; blots probed with mAb 9E10 and pAb anti-Flag

binding | Molecule
binds | Myc-tagged full-length CDK5RAP2 (from UniProt Q96SN8-1 1-1893)
binds | B1
binds | B2
